Measured values as given in the supplement of paper PMC10849652.
This is one part of the list.

Amino acid sequences for entries named in this document (tags omitted). A change or cut given only in a name is not applied to a line headed by its entry.
UniProt Q9P2W9: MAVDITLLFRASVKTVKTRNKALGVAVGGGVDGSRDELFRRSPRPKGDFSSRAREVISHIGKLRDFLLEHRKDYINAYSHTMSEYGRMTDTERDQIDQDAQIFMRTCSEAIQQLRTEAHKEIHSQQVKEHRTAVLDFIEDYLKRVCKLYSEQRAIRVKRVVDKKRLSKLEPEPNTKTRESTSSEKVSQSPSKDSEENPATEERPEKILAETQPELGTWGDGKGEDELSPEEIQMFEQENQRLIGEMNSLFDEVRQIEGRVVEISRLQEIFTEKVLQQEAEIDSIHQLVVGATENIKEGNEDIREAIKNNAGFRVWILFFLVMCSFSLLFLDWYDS
UniProt O60506: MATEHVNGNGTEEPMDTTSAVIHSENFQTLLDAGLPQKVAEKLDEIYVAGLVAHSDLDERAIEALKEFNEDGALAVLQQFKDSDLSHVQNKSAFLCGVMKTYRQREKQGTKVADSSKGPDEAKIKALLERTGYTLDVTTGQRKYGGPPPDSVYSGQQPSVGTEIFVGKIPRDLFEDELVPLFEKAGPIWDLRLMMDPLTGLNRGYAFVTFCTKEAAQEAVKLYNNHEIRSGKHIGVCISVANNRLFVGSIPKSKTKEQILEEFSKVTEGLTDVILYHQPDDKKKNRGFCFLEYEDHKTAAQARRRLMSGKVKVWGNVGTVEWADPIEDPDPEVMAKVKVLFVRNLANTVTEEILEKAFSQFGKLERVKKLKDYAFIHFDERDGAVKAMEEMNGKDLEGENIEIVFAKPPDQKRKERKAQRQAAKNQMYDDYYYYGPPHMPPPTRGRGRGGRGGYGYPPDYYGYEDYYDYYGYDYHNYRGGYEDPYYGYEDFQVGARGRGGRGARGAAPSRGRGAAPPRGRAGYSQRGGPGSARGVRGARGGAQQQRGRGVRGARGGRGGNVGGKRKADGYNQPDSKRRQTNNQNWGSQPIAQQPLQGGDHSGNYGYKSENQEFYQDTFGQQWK
UniProt Q7Z422: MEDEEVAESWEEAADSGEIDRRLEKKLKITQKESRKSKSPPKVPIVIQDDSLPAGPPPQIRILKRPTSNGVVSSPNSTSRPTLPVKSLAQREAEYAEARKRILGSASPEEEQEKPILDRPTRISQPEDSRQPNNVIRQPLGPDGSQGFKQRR
UniProt Q8N300: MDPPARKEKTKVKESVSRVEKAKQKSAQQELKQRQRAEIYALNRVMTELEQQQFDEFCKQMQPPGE
UniProt Q9Y3F4: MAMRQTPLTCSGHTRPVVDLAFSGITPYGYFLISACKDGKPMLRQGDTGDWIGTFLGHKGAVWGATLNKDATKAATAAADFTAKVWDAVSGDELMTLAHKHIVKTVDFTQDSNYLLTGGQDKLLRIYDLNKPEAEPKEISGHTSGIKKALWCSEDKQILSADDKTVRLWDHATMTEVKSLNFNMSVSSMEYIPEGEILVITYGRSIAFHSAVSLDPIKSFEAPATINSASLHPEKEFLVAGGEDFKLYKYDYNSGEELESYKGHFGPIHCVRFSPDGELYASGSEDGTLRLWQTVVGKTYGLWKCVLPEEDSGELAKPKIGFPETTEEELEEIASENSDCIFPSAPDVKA
UniProt Q1ZZU3: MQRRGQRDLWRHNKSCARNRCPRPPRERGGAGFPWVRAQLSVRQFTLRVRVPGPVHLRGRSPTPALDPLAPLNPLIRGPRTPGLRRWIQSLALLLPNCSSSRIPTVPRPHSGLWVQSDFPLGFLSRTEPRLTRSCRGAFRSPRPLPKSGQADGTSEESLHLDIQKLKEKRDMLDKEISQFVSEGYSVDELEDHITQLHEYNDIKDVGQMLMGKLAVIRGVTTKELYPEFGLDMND
UniProt O15260: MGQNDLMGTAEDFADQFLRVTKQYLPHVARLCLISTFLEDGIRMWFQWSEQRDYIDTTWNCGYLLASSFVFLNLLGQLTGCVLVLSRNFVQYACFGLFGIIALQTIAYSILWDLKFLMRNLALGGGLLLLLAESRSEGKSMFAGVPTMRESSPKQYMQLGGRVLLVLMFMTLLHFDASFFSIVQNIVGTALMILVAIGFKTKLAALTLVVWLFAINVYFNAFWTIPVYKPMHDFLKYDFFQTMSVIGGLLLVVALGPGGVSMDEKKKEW
UniProt Q15527: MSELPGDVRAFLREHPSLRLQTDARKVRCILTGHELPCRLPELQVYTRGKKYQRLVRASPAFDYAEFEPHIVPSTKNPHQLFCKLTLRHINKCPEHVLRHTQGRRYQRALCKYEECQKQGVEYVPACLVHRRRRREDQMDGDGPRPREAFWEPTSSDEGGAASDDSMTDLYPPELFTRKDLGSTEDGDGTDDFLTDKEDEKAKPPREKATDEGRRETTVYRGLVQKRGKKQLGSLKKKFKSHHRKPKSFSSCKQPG
UniProt Q7L7X3: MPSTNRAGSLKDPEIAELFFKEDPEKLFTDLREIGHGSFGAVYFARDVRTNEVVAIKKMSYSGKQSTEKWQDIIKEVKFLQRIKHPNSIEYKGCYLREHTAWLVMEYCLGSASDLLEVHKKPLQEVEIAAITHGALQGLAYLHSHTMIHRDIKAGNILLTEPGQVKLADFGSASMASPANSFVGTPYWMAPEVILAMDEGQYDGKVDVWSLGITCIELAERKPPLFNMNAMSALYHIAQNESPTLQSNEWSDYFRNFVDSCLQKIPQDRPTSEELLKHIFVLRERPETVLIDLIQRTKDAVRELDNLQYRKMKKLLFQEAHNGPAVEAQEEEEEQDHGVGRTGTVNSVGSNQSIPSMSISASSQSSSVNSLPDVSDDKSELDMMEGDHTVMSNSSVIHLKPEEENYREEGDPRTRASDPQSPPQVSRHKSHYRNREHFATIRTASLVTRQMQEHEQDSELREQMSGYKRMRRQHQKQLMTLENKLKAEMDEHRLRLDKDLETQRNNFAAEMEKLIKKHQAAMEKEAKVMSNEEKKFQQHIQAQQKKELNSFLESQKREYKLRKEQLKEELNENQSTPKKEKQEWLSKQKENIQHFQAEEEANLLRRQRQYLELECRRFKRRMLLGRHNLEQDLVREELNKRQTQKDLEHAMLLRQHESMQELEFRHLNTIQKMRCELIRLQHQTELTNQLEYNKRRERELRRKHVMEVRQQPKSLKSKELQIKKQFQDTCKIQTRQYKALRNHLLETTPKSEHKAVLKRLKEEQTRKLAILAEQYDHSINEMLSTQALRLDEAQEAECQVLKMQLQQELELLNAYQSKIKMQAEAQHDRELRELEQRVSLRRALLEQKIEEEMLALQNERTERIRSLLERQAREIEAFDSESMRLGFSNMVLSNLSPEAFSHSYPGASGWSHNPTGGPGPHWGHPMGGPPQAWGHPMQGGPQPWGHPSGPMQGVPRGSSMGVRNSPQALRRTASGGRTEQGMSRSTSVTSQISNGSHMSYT
UniProt Q9H2K8: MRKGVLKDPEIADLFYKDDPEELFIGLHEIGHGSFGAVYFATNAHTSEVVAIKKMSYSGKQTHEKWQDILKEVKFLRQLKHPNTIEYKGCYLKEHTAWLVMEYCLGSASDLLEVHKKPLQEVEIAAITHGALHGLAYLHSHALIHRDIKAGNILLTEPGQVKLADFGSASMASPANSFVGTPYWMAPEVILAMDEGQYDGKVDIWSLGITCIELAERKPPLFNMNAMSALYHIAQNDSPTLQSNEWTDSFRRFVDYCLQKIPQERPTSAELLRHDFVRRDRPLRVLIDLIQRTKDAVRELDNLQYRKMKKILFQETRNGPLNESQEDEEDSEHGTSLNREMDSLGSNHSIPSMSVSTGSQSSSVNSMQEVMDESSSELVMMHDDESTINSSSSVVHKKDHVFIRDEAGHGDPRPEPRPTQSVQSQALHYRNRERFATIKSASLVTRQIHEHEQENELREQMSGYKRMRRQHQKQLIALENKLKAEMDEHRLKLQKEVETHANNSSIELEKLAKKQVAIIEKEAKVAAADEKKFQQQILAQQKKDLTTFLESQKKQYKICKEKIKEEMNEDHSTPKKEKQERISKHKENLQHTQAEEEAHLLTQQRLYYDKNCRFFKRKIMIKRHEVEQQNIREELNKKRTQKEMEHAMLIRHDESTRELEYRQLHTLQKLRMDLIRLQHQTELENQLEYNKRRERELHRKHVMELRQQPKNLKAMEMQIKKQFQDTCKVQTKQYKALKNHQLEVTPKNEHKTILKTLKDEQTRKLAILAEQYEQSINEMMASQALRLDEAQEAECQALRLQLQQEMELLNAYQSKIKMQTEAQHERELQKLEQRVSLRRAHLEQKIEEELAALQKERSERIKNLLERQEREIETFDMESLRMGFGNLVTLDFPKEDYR
UniProt Q9UH99: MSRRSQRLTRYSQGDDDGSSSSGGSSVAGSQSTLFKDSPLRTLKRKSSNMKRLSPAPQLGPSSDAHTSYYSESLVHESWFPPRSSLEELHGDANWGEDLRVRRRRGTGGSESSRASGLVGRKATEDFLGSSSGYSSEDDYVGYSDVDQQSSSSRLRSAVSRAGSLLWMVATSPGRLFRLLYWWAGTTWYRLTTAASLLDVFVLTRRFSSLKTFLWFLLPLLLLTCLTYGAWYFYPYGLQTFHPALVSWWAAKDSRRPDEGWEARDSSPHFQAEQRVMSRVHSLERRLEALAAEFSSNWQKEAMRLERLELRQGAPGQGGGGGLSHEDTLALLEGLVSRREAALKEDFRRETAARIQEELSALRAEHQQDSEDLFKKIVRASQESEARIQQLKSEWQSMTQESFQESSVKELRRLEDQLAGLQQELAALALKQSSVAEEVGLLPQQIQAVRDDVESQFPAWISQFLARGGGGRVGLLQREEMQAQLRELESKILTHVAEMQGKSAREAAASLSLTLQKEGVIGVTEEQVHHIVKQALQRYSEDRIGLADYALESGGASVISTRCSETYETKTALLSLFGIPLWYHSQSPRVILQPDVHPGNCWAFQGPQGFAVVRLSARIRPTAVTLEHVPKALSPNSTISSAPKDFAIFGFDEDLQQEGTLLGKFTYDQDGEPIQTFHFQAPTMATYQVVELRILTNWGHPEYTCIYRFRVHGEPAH
UniProt Q13395: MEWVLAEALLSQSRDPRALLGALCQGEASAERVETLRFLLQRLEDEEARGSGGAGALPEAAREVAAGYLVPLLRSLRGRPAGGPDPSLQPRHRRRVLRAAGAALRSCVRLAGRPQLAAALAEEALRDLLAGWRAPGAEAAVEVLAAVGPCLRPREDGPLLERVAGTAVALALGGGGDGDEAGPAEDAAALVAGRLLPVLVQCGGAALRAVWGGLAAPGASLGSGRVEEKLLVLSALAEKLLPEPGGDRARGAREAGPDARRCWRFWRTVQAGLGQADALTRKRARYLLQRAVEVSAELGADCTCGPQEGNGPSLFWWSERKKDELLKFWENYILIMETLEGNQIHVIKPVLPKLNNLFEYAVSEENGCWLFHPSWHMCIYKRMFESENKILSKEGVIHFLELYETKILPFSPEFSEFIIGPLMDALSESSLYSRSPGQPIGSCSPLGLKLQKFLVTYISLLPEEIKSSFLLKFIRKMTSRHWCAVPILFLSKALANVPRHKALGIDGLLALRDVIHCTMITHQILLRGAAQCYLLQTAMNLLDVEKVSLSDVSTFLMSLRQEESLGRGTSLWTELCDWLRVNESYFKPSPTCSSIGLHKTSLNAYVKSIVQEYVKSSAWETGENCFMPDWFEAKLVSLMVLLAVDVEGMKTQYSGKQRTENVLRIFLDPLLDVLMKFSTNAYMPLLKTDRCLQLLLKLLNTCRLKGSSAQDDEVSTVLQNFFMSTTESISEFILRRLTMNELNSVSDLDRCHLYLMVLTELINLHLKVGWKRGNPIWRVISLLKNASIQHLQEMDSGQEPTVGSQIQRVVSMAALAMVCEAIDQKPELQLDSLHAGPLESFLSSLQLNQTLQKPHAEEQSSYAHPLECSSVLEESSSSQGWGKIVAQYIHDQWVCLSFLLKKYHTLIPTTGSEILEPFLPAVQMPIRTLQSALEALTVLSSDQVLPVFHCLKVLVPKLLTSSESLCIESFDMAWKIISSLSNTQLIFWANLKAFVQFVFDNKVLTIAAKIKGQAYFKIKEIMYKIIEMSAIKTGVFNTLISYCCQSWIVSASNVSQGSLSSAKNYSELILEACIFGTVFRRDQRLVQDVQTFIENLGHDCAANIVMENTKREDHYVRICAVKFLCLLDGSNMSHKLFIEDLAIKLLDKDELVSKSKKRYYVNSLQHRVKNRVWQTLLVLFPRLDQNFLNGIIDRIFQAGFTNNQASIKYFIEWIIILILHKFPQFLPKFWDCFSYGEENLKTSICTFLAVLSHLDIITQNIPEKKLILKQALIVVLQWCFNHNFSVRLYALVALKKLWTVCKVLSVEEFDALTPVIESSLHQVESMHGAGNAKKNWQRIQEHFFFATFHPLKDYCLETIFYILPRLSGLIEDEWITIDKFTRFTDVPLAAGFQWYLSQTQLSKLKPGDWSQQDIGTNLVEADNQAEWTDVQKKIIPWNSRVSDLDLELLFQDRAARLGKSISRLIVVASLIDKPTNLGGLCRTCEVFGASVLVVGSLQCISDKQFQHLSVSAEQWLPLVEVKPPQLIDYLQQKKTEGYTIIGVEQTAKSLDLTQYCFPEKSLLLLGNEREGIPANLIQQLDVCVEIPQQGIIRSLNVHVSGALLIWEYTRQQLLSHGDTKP

Assays:
Assay in all cases: log2 fold change, soluble protein after heating vs DMSO (PISA); higher = thermal stabilisation; K562 cells, 10 uM, 30 min; active = over 0.2 and 3.5 SD of the protein, either way, in both replicates (recomputed)
[1] = compound: CN1CCN(CCOc2cc(OC3CCOCC3)c3c(Nc4c(Cl)ccc5c4OCO5)ncnc3c2)CC1 [saracatinib]
Procedure, shortened: (§1)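 K562 cells at 2×10^6 cells/mL were exposed to 10 μM compound for 30 min, then aliquots were heated for 3 min across 48°C-58°C, pooled, and extracted in PBS containing 0.5% NP-40 at 4°C. The supernatant after 21,000xg for 90 min was taken as soluble protein and measured by TMTpro 16plex LC-MS/MS with channel sums equalised. Thermal stability is reported relative to control samples, with values from duplicates. Fold changes are given on a log2 scale.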

[2] = compound: CN1CCN(c2nc(C3=C(c4c[nH]c5ccccc45)C(=O)NC3=O)c3ccccc3n2)CC1 [sotrastaurin]
Procedure, shortened: as §1

[3] = compound: CN1CC[C@H](c2c(O)cc(O)c3c(=O)cc(-c4ccccc4Cl)oc23)[C@H](O)C1 [alvocidib]
Procedure, shortened: as §1

[4] = compound: CN1CCc2c(c3ccccc3n2Cc2ccc(C(=O)NO)cc2)C1 [Tubastatin A]
Procedure, shortened: as §1

[5] = compound: CNC(=O)C1=CC=CC=C1NC2=NC(=NC=C2Cl)NC3=C(C=C(C=C3)N4CCOCC4)OC
Procedure, shortened: as §1

[6] = compound: CNC(=O)c1ccc(Nc2ncc(C(F)(F)F)c(NCc3nccnc3N(C)S(C)(=O)=O)n2)cc1 [defactinib]
Procedure, shortened: as §1

[7] = compound: CNCc1ccc(-c2[nH]c3cc(F)cc4c3c2CCNC4=O)cc1 [rucaparib]
Procedure, shortened: as §1

[8] = compound: CNc1nc(-c2ccc3c(N)n[nH]c3c2)cc(N2C[C@@H](C(=O)NC3CCCCC3)CC[C@H]2C)n1
Procedure, shortened: as §1

[9] = compound: COC(=O)N[C@@H](C)CNc1nccc(-c2cn(C(C)C)nc2-c2cc(Cl)cc(NS(C)(=O)=O)c2F)n1 [encorafenib]
Procedure, shortened: as §1

[10] = compound: COC(=O)[C@H](CCSC)NC(=O)C1=C(C=C(C=C1)NC[C@H](CS)N)C2=CC=CC=C2
Procedure, shortened: as §1

Measured: log2 fold change

STX18 (UniProt Q9P2W9)
inactive: [1] -0.093 | [2] -0.094 | [3] -0.101 | [4] -0.003 | [5] -0.058 | [6] -0.02 | [7] 0.043 | [8] -0.113 | [9] 0.049 | [10] 0.011

SYNCRIP isoform 3 (UniProt O60506)
inactive: [1] -0.014 | [2] -0.229 | [3] 0.137 | [4] -0.01 | [5] 0.016 | [6] 0.166 | [7] 0.23 | [8] -0.005 | [9] -0.005 | [10] 0

SZRD1 (UniProt Q7Z422)
inactive: [1] 0.003 | [2] 0.04 | [3] -0.029 | [4] 0.034 | [5] -0.058 | [6] -0.02 | [7] -0.012 | [8] -0.009 | [9] 0.017 | [10] 0.004

STT3B (UniProt Q8TCJ2)
inactive: [1] 0.031 | [2] -0.051 | [3] 0.077 | [4] 0.007 | [5] 0.003 | [6] 0.057 | [7] 0.008 | [8] -0.013 | [9] 0.053 | [10] 0.011

SUCLG2 (UniProt Q96I99)
inactive: [1] 0.012 | [2] 0.01 | [3] -0.045 | [4] 0.011 | [5] -0.02 | [6] -0.011 | [7] -0.009 | [8] -0.014 | [9] -0.002 | [10] -0.003

SVBP (UniProt Q8N300)
inactive: [1] 0.077 | [2] 0.083 | [3] -0.096 | [4] 0.046 | [6] -0.02 | [7] 0.08 | [8] 0.004 | [9] -0.012 | [10] 0.031

STUB1 (UniProt Q9UNE7)
inactive: [1] -0.184 | [2] -0.23 | [3] 0.131 | [4] 0.096 | [5] -0.1 | [6] 0.141 | [7] 0.391 | [8] 0.079 | [9] 0.271 | [10] -0.039

STRAP isoform 2 (UniProt Q9Y3F4)
inactive: [1] 0.041 | [2] 0.022 | [3] 0.006 | [4] -0.027 | [5] -0.012 | [6] 0.005 | [7] 0.022 | [8] 0.008 | [9] -0.005 | [10] -0.014

SUPT4H1 (UniProt P63272)
inactive: [1] -0.084 | [2] -0.034 | [3] -0.014 | [4] 0.049 | [5] -0.001 | [6] -0.039 | [7] -0.01 | [8] -0.001 | [9] -0.052 | [10] -0.042

STXBP3 (UniProt O00186)
inactive: [1] -0.06 | [2] -0.272 | [3] -0.053 | [4] 0.087 | [5] -0.071 | [6] -0.052 | [7] 0.181 | [8] 0.092 | [9] 0.156 | [10] -0.063

STXBP1 (UniProt P61764)
inactive: [1] -0.069 | [2] -0.192 | [3] -0.116 | [4] 0.388 | [5] -0.039 | [6] -0.241 | [7] 0.075 | [8] 0.122 | [9] -0.003 | [10] -0.101

SWI5 (UniProt Q1ZZU3)
inactive: [1] -0.072 | [2] 0.032 | [3] 0.017 | [5] -0.076 | [6] -0.076 | [8] -0.055 | [10] 0.097

TACC3 (UniProt Q9Y6A5)
inactive: [1] -0.001 | [2] 0.005 | [3] -0.007 | [4] -0.003 | [5] 0.017 | [6] 0.003 | [7] -0.028 | [8] -0.03 | [9] -0.003 | [10] 0.021

SURF4 (UniProt O15260)
inactive: [1] 0.062 | [2] 0.007 | [3] -0.005 | [4] -0.067 | [5] -0.032 | [6] -0.03 | [7] -0.028 | [8] -0.028 | [9] -0.003 | [10] 0.027

Quoted at random: 2 records from the list
SWI5 (UniProt Q1ZZU3)
inactive: [1] -0.072 | [2] 0.032 | [3] 0.017 | [5] -0.076 | [6] -0.076 | [8] -0.055 | [10] 0.097

SURF4 (UniProt O15260)
inactive: [1] 0.062 | [2] 0.007 | [3] -0.005 | [4] -0.067 | [5] -0.032 | [6] -0.03 | [7] -0.028 | [8] -0.028 | [9] -0.003 | [10] 0.027

Additional entries.

TAF8 isoform 2 (UniProt Q7Z7C8)
inactive: [1] 0.014 | [2] -0.075 | [3] -0.031 | [4] 0.131 | [5] -0.069 | [6] -0.119 | [7] 0.043 | [8] -0.026 | [9] -0.145 | [10] -0.04

STRN4 isoform 3 (UniProt Q9NRL3)
inactive: [1] 0.096 | [2] -0.001 | [3] -0.085 | [4] -0.012 | [5] 0.064 | [6] -0.058 | [7] -0.058 | [8] -0.044 | [9] -0.003 | [10] -0.042

TACC1 isoform 2 (UniProt O75410)
inactive: [1] 0.046 | [2] 0.028 | [3] -0.016 | [4] -0.005 | [5] 0.013 | [6] -0.03 | [7] 0.006 | [8] -0.034 | [9] -0.01 | [10] 0.019

SURF2 (UniProt Q15527)
inactive: [1] 0.034 | [2] -0.02 | [4] 0.066 | [5] -0.015 | [6] -0.056 | [7] -0.055 | [8] -0.059 | [9] -0.037 | [10] -0.016

SUGP1 (UniProt Q8IWZ8)
inactive: [1] 0.012 | [2] -0.049 | [4] 0.052 | [5] -0.043 | [6] -0.124 | [7] -0.016 | [8] -0.074 | [9] -0.003 | [10] -0.02

SUPT5H (UniProt O00267)
inactive: [1] -0.01 | [2] -0.021 | [4] 0.007 | [5] -0.004 | [6] -0.126 | [7] -0.062 | [8] 0.039 | [9] 0.076 | [10] -0.017

TAOK1 (UniProt Q7L7X3)
inactive: [1] 0.002 | [2] -0.013 | [4] 0.032 | [5] -0.002 | [6] -0.142 | [7] 0.032 | [8] 0.053 | [9] -0.061 | [10] -0.018

SUPT16H (UniProt Q9Y5B9)
active: [6] -0.476
inactive: [1] -0.125 | [2] -0.209 | [4] 0.374 | [5] 0.034 | [7] -0.104 | [8] 0.024 | [9] 0.113 | [10] -0.138

SYNE2 isoform 2 (UniProt Q8WXH0)
inactive: [1] -0.121 | [2] -0.005 | [4] 0.071 | [5] -0.109 | [6] 0.029 | [7] -0.045 | [8] 0.049 | [9] -0.107 | [10] -0.006

TAOK3 (UniProt Q9H2K8)
inactive: [1] -0.002 | [2] -0.089 | [4] 0.042 | [5] -0.031 | [6] -0.109 | [7] -0.013 | [8] 0.019 | [9] 0.052 | [10] -0.044

SUN2 (UniProt Q9UH99)
inactive: [1] -0.029 | [2] -0.09 | [4] 0.053 | [5] -0.068 | [6] -0.05 | [7] 0.03 | [8] -0.066 | [9] 0.067 | [10] 0.023

SUMO1 (UniProt P63165)
inactive: [1] -0.112 | [2] 0.011 | [4] -0.073 | [5] 0.022 | [6] -0.067 | [7] 0.056 | [8] -0.09 | [9] -0.029 | [10] 0.028

STRN (UniProt O43815)
inactive: [1] 0.022 | [2] 0.026 | [4] 0.013 | [5] -0.007 | [6] -0.076 | [7] -0.007 | [8] -0.026 | [9] 0.017 | [10] -0.017

TARBP1 (UniProt Q13395)
inactive: [1] 0.026 | [2] -0.036 | [4] -0.033 | [5] 0.021 | [6] -0.026 | [7] 0.042 | [8] -0.027 | [9] -0.041 | [10] 0.014
